Results published in US20230416361A1.
These are yes or no findings as the source states them, for the method shown.

B1: anti-CD200R antibody clone 26.1.2 (mIgG1k isotype) (antibody, V domains shown)
VH: EVQLQQSGPELVKPGASVKMSCKASGYTFTSYVMHWVKQKPGQGLEWIGYIHPYNDDIKHNEKFKDKATLTSAKSSSTVYMELSSLTSEDSAVYYCAREEYYGSRFAYWGQGTLVTVSA
VL: DIVLTQSPASLAVSLGQRATISCRASKSVRTSGYSYLHWYQQKPGQPPKLLIYLASNLESGVPARFSGSGSGTDFTLNIHPVEEEDAATYYCQYSGELPFTFGGGTKLEIKR
B2: anti-CD200R antibody clone 21.3.1 (mIgG1k isotype) (antibody, V domains shown)
VH: QVQLQQPGSELVRPGASVKLSCKASGHTFTSYWMHWVKQRPGQGLEWIGNIYPGSGSINYDEKFKSKAKLTVDTSSRTAYMQLSSLTSEDSAVYYCLTMTGTSWGQGTLVTVSA
VL: DVQMIQSPSSLSASLGDIVTMTCQASQGTPINLHWFQQKPGKAPKLLISGASNLEDGVPSRFSGSRYGTAFTLTISSLEDEDMATYFCLQFTYIPWTFGGGTKLEIKR
B3: anti-CD200R antibody clone 3.10.2 (mIgG1k isotype) (antibody, V domains shown)
VH: QVQLQQPGSELVRPGASVKLSCKASGYTFTSYWMHWVKQRPGQGLEWIGNIFPGSDTTNYDEKFKSKAIMTVDISSSTVYMHLSSLTSEDSAVYYCITYTGAYWGQGTLVTVSA
VL: DVQMIQSPSSLSASMGDIVTMTCQASQGTNINLHWFQQKPGKAPKLLISGGSNLEDGVPSRFSGSRYGTDFTLTISSLEDEDMATYFCLQFTYLPWTFGGGTKLDIKR
B4: anti-CD200R antibody clone 7.12.2 (mIgG1k isotype) (antibody, V domains shown)
VH: QVQLQQPGSELVRPGASVKLSCKASGYTFTSYWMHWVKQRPGQGLEWIGNIYPGSGTTNYDEKFKSKATLTVDTSSSTAYMQISSLTSEDSAVYYCTTGTSTYWGQGTLVTVSA
VL: DVQMIQSPSSLSASLGDIVTMTCQASQGTSINLNWFQQKPGKAPKLLIYGAVNLEDGVPSRFSGSRYGTDFTLTVSSLEDEDMATYFCLQHTYLPWTFGGGTKLEIKR

Target: soluble cynomolgus macaque CD200RLa (cynomolgus macaque)
Assay: SPR, captured antibody, soluble receptor injected, 37 C

binding, no binding (tested: 2 µM):
B1
B2
B3
B4
